## Assay results

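A panel of P. falciparum strains inside erythrocytes is exposed to compounds for three days, then a DNA-binding dye reports the amount of parasite DNA.
Each compound was titrated across a series from about 0.000037 to 29 µM.
The number is the fitted AC50, the concentration giving a half-maximal change in signal; a lower value means higher potency, whether the curve shows a decrease or an increase.
Calls follow the curve class and fit quality: every row here is inconclusive, covering signal-raising curves and weak, poorly fitted, partial or highest-dose-only inhibition curves.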

Values are in µM.
All entries here are filed as inconclusive.
These entries are mostly ones the record files as inconclusive; other results of the assay are not listed here.
A potency from a partial, single-point or poor curve is only a rough figure.
Some entries filed as inconclusive have a full curve.
The first word of each remark tells which way the curve ran; it can be opposite to the aim of the assay.

* CN(C)CCOc1ccccc1Cc1ccccc1 [CP194] | Potency 16.94 µM (inhibitor, partial curve, poor fit)
* CN(C)CCOc1ccccc1Cc1ccccc1 [P93_24] | Potency 12.59 µM (inhibitor, partial curve)
* CN(C)CCOc1ccccc1Cc1ccccc1 [CP185] | Potency 2.818 µM (inhibitor, full curve)
* CN(C)CCOc1ccccc1Cc1ccccc1 [7G8] | Potency 1.122 µM (inhibitor, partial curve, poor fit)
* CN(C)CCOc1ccccc1Cc1ccccc1 [TAB165] | Potency 7.943 µM (inhibitor, partial curve, poor fit)
* CN(C)CCOc1ccccc1Cc1ccccc1 [CP215] | Potency 9.528 µM (inhibitor, partial curve)
* CN(C)CCOc1ccccc1Cc1ccccc1 [CP217] | Potency 3.548 µM (inhibitor, full curve)
* CCC(Oc1ccccc1)C(=O)NC1C(=O)N2C1SC(C)(C)C2C(=O)O (stereo not given) [CP192] | Potency 0.0011 µM (activator, full curve, poor fit)
* CCC(Oc1ccccc1)C(=O)NC1C(=O)N2C1SC(C)(C)C2C(=O)O (stereo not given) [DIV14] | Potency 12 µM (inhibitor, partial curve, poor fit)
* CC(C)(C#N)c1cc(Cn2cncn2)cc(C(C)(C)C#N)c1 [CP335] | Potency 1.901 µM (inhibitor, single point)
* CCN(CC)CCOc1ccc(-c2nc3cc(Cl)ccc3s2)cc1 [CP268] | Potency 21.33 µM (inhibitor, partial curve, poor fit)
* CCN(CC)CCOc1ccc(-c2nc3cc(Cl)ccc3s2)cc1 [AA1029] | Potency 17.78 µM (inhibitor, single point)
* CCN(CC)CCOc1ccc(-c2nc3cc(Cl)ccc3s2)cc1 [DFO2036] | Potency 17.78 µM (inhibitor, single point)
* CCN(CC)CCOc1ccc(-c2nc3cc(Cl)ccc3s2)cc1 [P93_24] | Potency 17.78 µM (inhibitor, single point)
* CCN(CC)CCOc1ccc(-c2nc3cc(Cl)ccc3s2)cc1 [TAB165] | Potency 17.78 µM (inhibitor, single point)
* CCN(CC)CCOc1ccc(-c2nc3cc(Cl)ccc3s2)cc1 [ATS95] | Potency 19.95 µM (inhibitor, single point)
* CCN(CC)CCOc1ccc(-c2nc3cc(Cl)ccc3s2)cc1 [CP247] | Potency 10 µM (inhibitor, single point)

The first 2 entries again:

{"compound": "CN(C)CCOc1ccccc1Cc1ccccc1", "condition": "CP194", "Potency (µM)": "16.94", "remark": "inhibitor, partial curve, poor fit"}
{"compound": "CN(C)CCOc1ccccc1Cc1ccccc1", "condition": "P93_24", "Potency (µM)": "12.59", "remark": "inhibitor, partial curve"}

Source: PubChem BioAssay AID504749 (NCATS, 2011).